# This is one part of the list.
# B1: BSR4 (Toxoplasma gondii), Q95NL6 (protein)
# chain: MVMMGSMQQRRGGLRSNARQLLAVCMSGVVFFSSGQAVADNLLEGLLHRTLQQQVEVTSRLTVAGSDAKCDFFTPATQDSPPVSGSLTLSKGRMTATFECSATQALSISTIPTNIEQNVCDPKKTTNGTVCQFGANGSAGTEVTLKDLLETDRIVNWKVNEQREESNKSQKWSLELHNEDLPLTDKAFVVGCQATSAARGTESGKTAACKLTVNVEARASSLAENNVVTCAYGKGSNPNPVEVEMSTEKNTLTINCGSDGSLQPTTYAEEYCVADSKDVNRCSTTRFVEIFPKFLKSWWVTETQKRTSATLTIPQTDLPEADQQFLVGCVPKKTAPEDPKKDKESGTETGAPTSCTVLVTVKAASSASHASPTVQILAAASSAAA
# Tests used:
# Assay in all cases: glycan array binding signal (z-score within array); higher = stronger binding
# Conditions in all cases: glycan notation: IUPAC condensed, linker removed
# [1] = biological target: Gal3S(b1-4)[Fuc(a1-3)]Glc
# Outline: (§1)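 The binding signal is a Z-score computed within each array and averaged over linkers. Arrays of the same protein sequence at different concentrations or buffers were also averaged together. Data originate from 3228 arrays in the Consortium for Functional Glycomics database, kept only where the protein sequence was available.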
# [2] = biological target: Gal3S(b1-4)[Fuc(a1-3)]Glc6S
# Outline: as §1
# Gal3S4S(b1-4)GlcNAc = biological target: Gal3S4S(b1-4)GlcNAc
# Outline: as §1
# Gal3S6S(b1-4)GlcNAc = biological target: Gal3S6S(b1-4)GlcNAc
# Outline: as §1
# Gal3S6S(b1-4)GlcNAc6S = biological target: Gal3S6S(b1-4)GlcNAc6S
# Outline: as §1
# Gal4S(b1-4)GlcNAc = biological target: Gal4S(b1-4)GlcNAc
# Outline: as §1
# Gal4S6S(b1-4)GlcNAc = biological target: Gal4S6S(b1-4)GlcNAc
# Outline: as §1
# Gal6S(b1-4)Glc = biological target: Gal6S(b1-4)Glc
# Outline: as §1
# Gal6S(b1-4)Glc6S = biological target: Gal6S(b1-4)Glc6S
# Outline: as §1
# Gal6S(b1-4)GlcNAc = biological target: Gal6S(b1-4)GlcNAc
# Outline: as §1
# Gal6S(b1-4)GlcNAc6S = biological target: Gal6S(b1-4)GlcNAc6S
# Outline: as §1
# GalNAc(a1-3)Gal = biological target: GalNAc(a1-3)Gal
# Outline: as §1
# GalNAc(a1-3)GalNAc = biological target: GalNAc(a1-3)GalNAc
# Outline: as §1
# [3] = biological target: GalNAc(a1-3)GalNAc(a1-3)Gal(a1-4)Gal(b1-4)GlcNAc
# Outline: as §1
# GalNAc(b1-3)Gal = biological target: GalNAc(b1-3)Gal
# Outline: as §1
# [4] = biological target: GalNAc(b1-3)Gal(a1-4)Gal(b1-4)GlcNAc
# Outline: as §1
# [5] = biological target: GalNAc(b1-3)Gal(a1-4)Gal(b1-4)GlcNAc(b1-3)Gal(b1-4)Glc
# Outline: as §1
# [6] = biological target: GalNAc(b1-3)Gal(a1-6)Gal(b1-4)Glc
# Outline: as §1
# GalNAc(b1-3)GalNAc = biological target: GalNAc(b1-3)GalNAc
# Outline: as §1
# GalNAc(b1-4)GlcNAc = biological target: GalNAc(b1-4)GlcNAc
# Outline: as §1
# [7] = biological target: GalNAc(b1-4)GlcNAc(b1-2)Man(a1-3)[GalNAc(b1-4)GlcNAc(b1-2)Man(a1-6)]Man(b1-4)GlcNAc(b1-4)GlcNAc
# Outline: as §1
# Glc(a1-4)Glc = biological target: Glc(a1-4)Glc
# Outline: as §1
# Glc(a1-6)Glc(a1-6)Glc = biological target: Glc(a1-6)Glc(a1-6)Glc
# Outline: as §1
# Glc(b1-4)Glc = biological target: Glc(b1-4)Glc
# Outline: as §1
# Glc(b1-6)Glc = biological target: Glc(b1-6)Glc
# Outline: as §1
# GlcA(b1-3)Gal = biological target: GlcA(b1-3)Gal
# Outline: as §1
# GlcA(b1-3)GlcNAc = biological target: GlcA(b1-3)GlcNAc
# Outline: as §1
# GlcA(b1-6)Gal = biological target: GlcA(b1-6)Gal
# Outline: as §1
# [8] = biological target: GlcNAc(a1-3)Gal(b1-4)GlcNAc
# Outline: as §1
# [9] = biological target: GlcNAc(a1-4)Gal(b1-3)GlcNAc
# Outline: as §1
# [10] = biological target: GlcNAc(a1-4)Gal(b1-4)GalNAc
# Outline: as §1
# [11] = biological target: GlcNAc(a1-4)Gal(b1-4)GlcNAc
# Outline: as §1
# [12] = biological target: GlcNAc(a1-4)Gal(b1-4)GlcNAc(b1-3)Gal(b1-4)Glc
# Outline: as §1
# [13] = biological target: GlcNAc(a1-4)Gal(b1-4)GlcNAc(b1-3)Gal(b1-4)GlcNAc
# Outline: as §1
# [14] = biological target: GlcNAc(a1-4)Gal(b1-4)GlcNAc(b1-3)Gal(b1-4)GlcNAc(b1-3)Gal(b1-4)GlcNAc
# Outline: as §1
# [15] = biological target: GlcNAc(a1-4)Gal(b1-4)GlcNAc(b1-3)Gal(b1-4)[Fuc(a1-3)]GlcNAc(b1-3)Gal(b1-4)[Fuc(a1-3)]GlcNAc
# Outline: as §1
# [16] = biological target: GlcNAc(a1-6)Gal(b1-4)GlcNAc
# Outline: as §1
binder,measurement,setting,value
B1,glycan array binding signal (z-score),[1],0.054
same,glycan array binding signal (z-score),[2],0.993
same,glycan array binding signal (z-score),Gal3S4S(b1-4)GlcNAc,-0.074
same,glycan array binding signal (z-score),Gal3S6S(b1-4)GlcNAc,0.975
same,glycan array binding signal (z-score),Gal3S6S(b1-4)GlcNAc6S,0.358
same,glycan array binding signal (z-score),Gal4S(b1-4)GlcNAc,-0.451
same,glycan array binding signal (z-score),Gal4S6S(b1-4)GlcNAc,0.705
same,glycan array binding signal (z-score),Gal6S(b1-4)Glc,0.335
same,glycan array binding signal (z-score),Gal6S(b1-4)Glc6S,0.41
same,glycan array binding signal (z-score),Gal6S(b1-4)GlcNAc,0.345
same,glycan array binding signal (z-score),Gal6S(b1-4)GlcNAc6S,0.245
same,glycan array binding signal (z-score),GalNAc(a1-3)Gal,-0.538
same,glycan array binding signal (z-score),GalNAc(a1-3)GalNAc,0.038
same,glycan array binding signal (z-score),[3],-0.674
same,glycan array binding signal (z-score),GalNAc(b1-3)Gal,-0.368
same,glycan array binding signal (z-score),[4],0.229
same,glycan array binding signal (z-score),[5],-0.584
same,glycan array binding signal (z-score),[6],-0.617
same,glycan array binding signal (z-score),GalNAc(b1-3)GalNAc,-0.482
same,glycan array binding signal (z-score),GalNAc(b1-4)GlcNAc,0.106
same,glycan array binding signal (z-score),[7],0.841
same,glycan array binding signal (z-score),Glc(a1-4)Glc,-0.262
same,glycan array binding signal (z-score),Glc(a1-6)Glc(a1-6)Glc,-0.956
same,glycan array binding signal (z-score),Glc(b1-4)Glc,-0.248
same,glycan array binding signal (z-score),Glc(b1-6)Glc,-0.765
same,glycan array binding signal (z-score),GlcA(b1-3)Gal,0.225
same,glycan array binding signal (z-score),GlcA(b1-3)GlcNAc,-0.176
same,glycan array binding signal (z-score),GlcA(b1-6)Gal,0.829
same,glycan array binding signal (z-score),[8],-0.804
same,glycan array binding signal (z-score),[9],-0.156
same,glycan array binding signal (z-score),[10],-0.02
same,glycan array binding signal (z-score),[11],0.47
same,glycan array binding signal (z-score),[12],-0.13
same,glycan array binding signal (z-score),[13],0.282
same,glycan array binding signal (z-score),[14],-0.25
same,glycan array binding signal (z-score),[15],1.8
same,glycan array binding signal (z-score),[16],-0.444

# For reference, part of the list above.
binder,measurement,setting,value
B1,glycan array binding signal (z-score),[10],-0.02
same,glycan array binding signal (z-score),[11],0.47

# — the supplement of paper PMC8728848
